# The supplement of paper PMC8728848
# The other results are listed elsewhere or left out.
# Experiments:
# Test in all cases: glycan array binding signal (z-score within array); higher = stronger binding
# Settings in all cases: glycan notation: IUPAC condensed, linker removed
# [1] = biological target: GlcNAc(b1-3)Gal(b1-4)Glc
# Summary of the method: (§1)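 Negative Z-scores can be read as non-binding. The Z-score is calculated within each array and then averaged across arrays of one protein sequence at different concentrations or buffers and across linkers. Arrays, 3228 in all, were curated from the Consortium for Functional Glycomics database and kept only where the protein sequence was available.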
# [2] = biological target: GlcNAc(b1-3)Gal(b1-4)GlcNAc
# Summary of the method: as §1
# [3] = biological target: GlcNAc(b1-3)Gal(b1-4)GlcNAc(b1-2)Man(a1-3)[GlcNAc(b1-3)Gal(b1-4)GlcNAc(b1-2)Man(a1-6)]Man(b1-4)GlcNAc(b1-4)GlcNAc
# Summary of the method: as §1
# [4] = biological target: GlcNAc(b1-3)Gal(b1-4)GlcNAc(b1-2)Man(a1-3)[GlcNAc(b1-3)Gal(b1-4)GlcNAc(b1-2)Man(a1-6)]Man(b1-4)GlcNAc(b1-4)[Fuc(a1-6)]GlcNAc
# Summary of the method: as §1
# [5] = biological target: GlcNAc(b1-3)Gal(b1-4)GlcNAc(b1-2)[GlcNAc(b1-3)Gal(b1-4)GlcNAc(b1-6)]Man(a1-6)[GlcNAc(b1-3)Gal(b1-4)GlcNAc(b1-2)Man(a1-3)]Man(b1-4)GlcNAc(b1-4)GlcNAc
# Summary of the method: as §1
# [6] = biological target: GlcNAc(b1-3)Gal(b1-4)GlcNAc(b1-3)Gal(b1-4)GlcNAc
# Summary of the method: as §1
# [7] = biological target: GlcNAc(b1-3)Gal(b1-4)GlcNAc(b1-3)Gal(b1-4)GlcNAc(b1-2)Man(a1-3)[GlcNAc(b1-3)Gal(b1-4)GlcNAc(b1-3)Gal(b1-4)GlcNAc(b1-2)Man(a1-6)]Man(b1-4)GlcNAc(b1-4)GlcNAc
# Summary of the method: as §1
# [8] = biological target: GlcNAc(b1-3)Gal(b1-4)GlcNAc(b1-3)Gal(b1-4)GlcNAc(b1-2)Man(a1-3)[GlcNAc(b1-3)Gal(b1-4)GlcNAc(b1-3)Gal(b1-4)GlcNAc(b1-2)Man(a1-6)]Man(b1-4)GlcNAc(b1-4)[Fuc(a1-6)]GlcNAc
# Summary of the method: as §1
# [9] = biological target: GlcNAc(b1-3)Gal(b1-4)GlcNAc(b1-3)Gal(b1-4)GlcNAc(b1-2)[GlcNAc(b1-3)Gal(b1-4)GlcNAc(b1-3)Gal(b1-4)GlcNAc(b1-6)]Man(a1-6)[GlcNAc(b1-3)Gal(b1-4)GlcNAc(b1-3)Gal(b1-4)GlcNAc(b1-2)Man(a1-3)]Man(b1-4)GlcNAc(b1-4)[Fuc(a1-6)]GlcNAc
# Summary of the method: as §1
# [10] = biological target: GlcNAc(b1-3)Gal(b1-4)GlcNAc(b1-3)Gal(b1-4)GlcNAc(b1-3)Gal(b1-4)GlcNAc(b1-2)Man(a1-3)[GlcNAc(b1-3)Gal(b1-4)GlcNAc(b1-3)Gal(b1-4)GlcNAc(b1-3)Gal(b1-4)GlcNAc(b1-2)Man(a1-6)]Man(b1-4)GlcNAc(b1-4)GlcNAc
# Summary of the method: as §1
# [11] = biological target: GlcNAc(b1-3)Gal(b1-4)GlcNAc(b1-3)Gal(b1-4)GlcNAc(b1-3)Gal(b1-4)GlcNAc(b1-2)Man(a1-3)[GlcNAc(b1-3)Gal(b1-4)GlcNAc(b1-3)Gal(b1-4)GlcNAc(b1-3)Gal(b1-4)GlcNAc(b1-2)Man(a1-6)]Man(b1-4)GlcNAc(b1-4)[Fuc(a1-6)]GlcNAc
# Summary of the method: as §1
# [12] = biological target: GlcNAc(b1-3)Gal(b1-4)GlcNAc(b1-3)Gal(b1-4)GlcNAc(b1-3)Gal(b1-4)GlcNAc(b1-2)[GlcNAc(b1-3)Gal(b1-4)GlcNAc(b1-3)Gal(b1-4)GlcNAc(b1-3)Gal(b1-4)GlcNAc(b1-6)]Man(a1-6)[GlcNAc(b1-3)Gal(b1-4)GlcNAc(b1-3)Gal(b1-4)GlcNAc(b1-3)Gal(b1-4)GlcNAc(b1-2)Man(a1-3)]Man(b1-4)GlcNAc(b1-4)[Fuc(a1-6)]GlcNAc
# Summary of the method: as §1
# [13] = biological target: GlcNAc(b1-3)Gal(b1-4)GlcNAc(b1-3)Gal(b1-4)GlcNAc(b1-3)Gal(b1-4)GlcNAc(b1-3)Gal(b1-4)GlcNAc(b1-2)Man(a1-3)[GlcNAc(b1-3)Gal(b1-4)GlcNAc(b1-3)Gal(b1-4)GlcNAc(b1-3)Gal(b1-4)GlcNAc(b1-3)Gal(b1-4)GlcNAc(b1-2)Man(a1-6)]Man(b1-4)GlcNAc(b1-4)GlcNAc
# Summary of the method: as §1
# [14] = biological target: GlcNAc(b1-3)Gal(b1-4)GlcNAc(b1-3)Gal(b1-4)GlcNAc(b1-3)Gal(b1-4)GlcNAc(b1-3)Gal(b1-4)GlcNAc(b1-2)Man(a1-3)[GlcNAc(b1-3)Gal(b1-4)GlcNAc(b1-3)Gal(b1-4)GlcNAc(b1-3)Gal(b1-4)GlcNAc(b1-3)Gal(b1-4)GlcNAc(b1-2)Man(a1-6)]Man(b1-4)GlcNAc(b1-4)[Fuc(a1-6)]GlcNAc
# Summary of the method: as §1
# [15] = biological target: GlcNAc(b1-3)Gal(b1-4)GlcNAc(b1-3)Gal(b1-4)GlcNAc(b1-3)Gal(b1-4)GlcNAc(b1-3)Gal(b1-4)GlcNAc(b1-2)[GlcNAc(b1-3)Gal(b1-4)GlcNAc(b1-3)Gal(b1-4)GlcNAc(b1-3)Gal(b1-4)GlcNAc(b1-3)Gal(b1-4)GlcNAc(b1-6)]Man(a1-6)[GlcNAc(b1-3)Gal(b1-4)GlcNAc(b1-3)Gal(b1-4)GlcNAc(b1-3)Gal(b1-4)GlcNAc(b1-3)Gal(b1-4)GlcNAc(b1-2)Man(a1-3)]Man(b1-4)GlcNAc(b1-4)[Fuc(a1-6)]GlcNAc
# Summary of the method: as §1
# [16] = biological target: GlcNAc(b1-3)Gal(b1-4)GlcNAc(b1-3)Gal(b1-4)GlcNAc(b1-3)GalNAc
# Summary of the method: as §1
# [17] = biological target: GlcNAc(b1-3)Gal(b1-4)GlcNAc(b1-3)GalNAc
# Summary of the method: as §1
# [18] = biological target: GlcNAc(b1-3)Gal(b1-4)GlcNAc(b1-3)[GlcNAc(b1-3)Gal(b1-4)GlcNAc(b1-3)]GalNAc
# Summary of the method: as §1
# [19] = biological target: GlcNAc(b1-3)Gal(b1-4)GlcNAc(b1-6)[Gal(b1-3)]GalNAc
# Summary of the method: as §1
# [20] = biological target: GlcNAc(b1-3)Gal(b1-4)GlcNAc(b1-6)[GlcNAc(b1-3)Gal(b1-3)]GalNAc
# Summary of the method: as §1
# [21] = biological target: GlcNAc(b1-3)Gal(b1-4)GlcNAc(b1-6)[GlcNAc(b1-3)]Gal(b1-4)GlcNAc
# Summary of the method: as §1
# [22] = biological target: GlcNAc(b1-3)GalNAc
# Summary of the method: as §1
# [23] = biological target: GlcNAc(b1-3)Man
# Summary of the method: as §1
# [24] = biological target: GlcNAc(b1-3)[GlcNAc(b1-4)][GlcNAc(b1-6)]GlcNAc
# Summary of the method: as §1
# [25] = biological target: GlcNAc(b1-3)[GlcNAc(b1-6)]Gal(b1-4)GlcNAc
# Summary of the method: as §1
# [26] = biological target: GlcNAc(b1-3)[GlcNAc(b1-6)]GalNAc
# Summary of the method: as §1
# [27] = biological target: GlcNAc(b1-4)Gal(b1-4)GlcNAc
# Summary of the method: as §1
# [28] = biological target: GlcNAc(b1-4)GlcNAc
# Summary of the method: as §1
# [29] = biological target: GlcNAc(b1-4)GlcNAc(b1-4)GlcNAc
# Summary of the method: as §1
# [30] = biological target: GlcNAc(b1-4)GlcNAc(b1-4)GlcNAc(b1-4)GlcNAc(b1-4)GlcNAc
# Summary of the method: as §1
# [31] = biological target: GlcNAc(b1-4)GlcNAc(b1-4)GlcNAc(b1-4)GlcNAc(b1-4)GlcNAc(b1-4)GlcNAc
# Summary of the method: as §1
# [32] = biological target: GlcNAc(b1-4)[GlcNAc(b1-6)]GalNAc
# Summary of the method: as §1
# [33] = biological target: GlcNAc(b1-6)Gal(b1-4)GlcNAc
# Summary of the method: as §1
# [34] = biological target: GlcNAc(b1-6)GalNAc
# Summary of the method: as §1
# [35] = biological target: GlcNAc6S(b1-3)Gal(b1-4)GlcNAc
# Summary of the method: as §1
# [36] = biological target: Kdn(a2-3)Gal(b1-3)GalNAc
# Summary of the method: as §1
# [37] = biological target: Kdn(a2-3)Gal(b1-3)GlcNAc
# Summary of the method: as §1
# [38] = biological target: Kdn(a2-3)Gal(b1-4)Glc
# Summary of the method: as §1
# [39] = biological target: Kdn(a2-3)Gal(b1-4)GlcNAc
# Summary of the method: as §1
# [40] = biological target: Kdn(a2-3)Gal(b1-4)[Fuc(a1-3)]GlcNAc
# Summary of the method: as §1
# [41] = biological target: Kdn(a2-6)Gal(b1-4)GlcNAc
# Summary of the method: as §1
# [42] = biological target: Man(a1-2)Man(a1-2)Man(a1-3)Man
# Summary of the method: as §1
# [43] = biological target: Man(a1-2)Man(a1-2)Man(a1-6)[Man(a1-3)]Man
# Summary of the method: as §1
# [44] = biological target: Man(a1-2)Man(a1-3)Man
# Summary of the method: as §1
# [45] = biological target: Man(a1-2)Man(a1-3)[Man(a1-2)Man(a1-6)]Man
# Summary of the method: as §1
binder,measurement,setting,value
CM2 (Cordyceps militaris) (protein) MEIAEQNVGKSCAIVNLIPPKEGSNIWTAKQVTIARNLPPNRGTGRHQIDWSFGPVKVTGYVDTTNWEIGVTVSIMGIDLGTVYGNLRDGVVLNVDLFLAKGQVRFYLKNGNEVWVHLSVEIRFDGKFEGDYKIITV,glycan array binding signal (z-score),[1],0.644
same,glycan array binding signal (z-score),[2],0.373
same,glycan array binding signal (z-score),[3],0.096
same,glycan array binding signal (z-score),[4],2.3
same,glycan array binding signal (z-score),[5],-0.174
same,glycan array binding signal (z-score),[6],-1.06
same,glycan array binding signal (z-score),[7],0.188
same,glycan array binding signal (z-score),[8],0.25
same,glycan array binding signal (z-score),[9],3.55
same,glycan array binding signal (z-score),[10],-0.287
same,glycan array binding signal (z-score),[11],0.912
same,glycan array binding signal (z-score),[12],0.039
same,glycan array binding signal (z-score),[13],0.44
same,glycan array binding signal (z-score),[14],0.927
same,glycan array binding signal (z-score),[15],0.787
same,glycan array binding signal (z-score),[16],-1.86
same,glycan array binding signal (z-score),[17],-0.335
same,glycan array binding signal (z-score),[18],1.04
same,glycan array binding signal (z-score),[19],0.614
same,glycan array binding signal (z-score),[20],-0.563
same,glycan array binding signal (z-score),[21],0.308
same,glycan array binding signal (z-score),[22],-0.452
same,glycan array binding signal (z-score),[23],1.77
same,glycan array binding signal (z-score),[24],-1.22
same,glycan array binding signal (z-score),[25],-0.294
same,glycan array binding signal (z-score),[26],0.885
same,glycan array binding signal (z-score),[27],0.025
same,glycan array binding signal (z-score),[28],0.445
same,glycan array binding signal (z-score),[29],1.83
same,glycan array binding signal (z-score),[30],-0.448
same,glycan array binding signal (z-score),[31],-0.177
same,glycan array binding signal (z-score),[32],-1.51
same,glycan array binding signal (z-score),[33],0.789
same,glycan array binding signal (z-score),[34],-0.561
same,glycan array binding signal (z-score),[35],0.213
same,glycan array binding signal (z-score),[36],0.552
same,glycan array binding signal (z-score),[37],-0.024
same,glycan array binding signal (z-score),[38],-1.36
same,glycan array binding signal (z-score),[39],-0.406
same,glycan array binding signal (z-score),[40],0.801
same,glycan array binding signal (z-score),[41],0.249
same,glycan array binding signal (z-score),[42],0.65
same,glycan array binding signal (z-score),[43],-2.46
same,glycan array binding signal (z-score),[44],-1.81
same,glycan array binding signal (z-score),[45],0.418

# Reformatted with bars between the fields: part of the list above.
binder | measurement | setting | value
CM2 (Cordyceps militaris) (protein) MEIAEQNVGKSCAIVNLIPPKEGSNIWTAKQVTIARNLPPNRGTGRHQIDWSFGPVKVTGYVDTTNWEIGVTVSIMGIDLGTVYGNLRDGVVLNVDLFLAKGQVRFYLKNGNEVWVHLSVEIRFDGKFEGDYKIITV | glycan array binding signal (z-score) | [41] | 0.249
same | glycan array binding signal (z-score) | [42] | 0.65
